Library screen at single concentrations

Source: ChEMBL document CHEMBL3988442, “University of Dundee, Small-Polar-MMV Screening Library” (2021).

Mtb glucose medium: 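Growth of Mycobacterium tuberculosis over 3 days (7H9 medium with glucose and tyloxapol); the read-out is not stated. Tested at 50 µM. Direction is inferred from retests: higher values go with more growth inhibition. About 69,000 compounds were tested under these conditions; 1.1% (about 760) showed 50% or more at least once.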
Mtb cholesterol medium: 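Whole-cell growth test on Mycobacterium tuberculosis, read after 4 days in a medium based on cholesterol and the lipid DPPC; the read-out is not stated. Compounds at 50 µM. Direction is inferred from retests: higher values go with more growth inhibition. About 69,000 compounds were tested under these conditions; 0.54% (about 370) showed 50% or more at least once.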

Each number is a percent effect as filed. The record does not define 0% and 100%; most values in the screen are far below 50% and negative numbers occur (in some assays of this library far below -100). Compounds were drawn at random from those tested, without regard to their results. Two or more numbers in one place are separate tests of the same structure; such repeats can differ widely.

| # | Compound | Mtb glucose medium | Mtb cholesterol medium |
|---|---|---|---|
| 1 | `O=C(C1CCOCC1)N1CCC2(CC1)CN(c1ccsc1)C(=O)CO2` | 6.972% | -14.48% and 16.87% |
| 2 | `CCc1nc(CNc2ccc(C(=O)N3CCSCC3)cc2C)no1` | 32.27% | -5.225% |
| 3 | `COc1cc2nc(NCc3ccc(C)nc3)nc(N)c2cc1OC` | 49.09% | 15.58% |
| 4 | `CCN(CC(C)C#N)C(=O)CNc1ccc(F)c(C)c1` (stereo not shown) | -6.444% | -13.32% and -10.1% |
| 5 | `c1ncn(CC2CCCCN2Cc2cn3ccsc3n2)n1` (stereo not shown) | 20.45% | -11.21% |
| 6 | `CN(C(=O)CSc1ccccn1)C1CCCN(CCc2ccccc2)C1` (stereo not shown) | 14.6% and 16.74% | 3.031% |
| 7 | `O=C1CCCCCN1CCC(=O)N1CCCC(c2ccn[nH]2)C1` (stereo not shown) | 6.774% | 0.07449% |
| 8 | `COc1ccccc1NC(=O)N(CCO)Cc1ccsc1` | 23.18% | -11.72% |
| 9 | `CCc1ccc(S(=O)(=O)Nc2cnc(N3CCOCC3)nc2)cc1` | 1.581% | 26.76% |
| 10 | `Cc1ccc(Nc2nccc(C3CN(CC(N)=O)C3)n2)nc1` | 29.42% | 0.9068% |
| 11 | `c1cn(-c2ccc(CN3CCOC(Cn4cncn4)C3)cc2)cn1` (stereo not shown) | -8.039% | -17.88% |
| 12 | `O=C(O)C(F)(F)F.O=C(O)C(F)(F)F.[H][C@@]12CCN(Cc3ccncc3)C[C@@]1([H])O[C@H](C(=O)NC1CCC1)C2` | 15.17% | 24.8% |
| 13 | `CC(CNC(=O)c1cc(Cl)ccc1I)N1CCCC1` (stereo not shown) | -23.72% and -3.248% | -13.21% |
| 14 | `CC(=O)N(C)C1CCCc2nc(C)sc21` (stereo not shown) | -26.76% | -24.04% |
| 15 | `O=C(CSc1nnc(N2CCOCC2)s1)NC(=O)Nc1ccccc1` | -5.776% and 8.622% | 1.249% |
| 16 | `Cc1cn[nH]c1C1COCCN1Cc1cscn1` (stereo not shown) | 2.439% | -0.4008% and -6.283% |
| 17 | `Cc1nc2ccc(C(=O)N3CCC(COc4ccccn4)CC3)cc2[nH]1` | -18.69% | -10.25% |
| 18 | `Cc1cc(C)c(C(=O)N2CCOC(c3cccs3)C2)c(=O)[nH]1` (stereo not shown) | -1.964% | -1.965% |
| 19 | `CCc1nc2n(n1)CC(NCC(=O)Nc1oc(C)c(C)c1C#N)CC2` (stereo not shown) | -6.842% and -36.16% | -22.23% |
| 20 | `Cc1cccc(CN2CCCC2c2cccc(CCC(=O)O)n2)c1` (stereo not shown) | 13.29% | -22.79% |
| 21 | `O=C(O)C(F)(F)F.O=C1COC2(COCCN(c3ccccn3)C2)CN1c1cccc(F)c1` (stereo not shown) | 24.21% | -5.9% |
| 22 | `Cc1ccc(C(=O)NC(CN2CCCC2=O)c2ccccc2)cn1` (stereo not shown) | -0.4308% | -7.104% |
| 23 | `CN(CC(=O)N1CC(C)(C)[C@](O)(C2CC2)C1)Cc1ccncc1` | -15.86% | 12.06% |
| 24 | `Cc1cccc(Nc2ccc(C3CCCCN3)cn2)n1` (stereo not shown) | 4.051% | -1.204% |
| 25 | `O=C1CC(N2CCN(c3ccccc3O)CC2)C(=O)N1Cc1cccs1` (stereo not shown) | 9.865% and 8.917% | -1.328% |
| 26 | `Cc1cccc(C(=O)NCC(O)c2ccc(F)cc2F)c1` (stereo not shown) | 13.2% | -12.57% |
| 27 | `O=C(O)C(F)(F)F.O=C(c1cc[nH]n1)N1CCc2onc(COc3cccnc3)c2C1` | -18.71% | -7.838% and -4.702% |
| 28 | `CCc1ccc(C(=O)O)cc1S(=O)(=O)N(C)c1cccc(C)c1` | 8.45% and 8.915% | 13.84% and 0.4948% |
| 29 | `Cc1cnn(CCNC(C)C(=O)NCCc2cccs2)c1` (stereo not shown) | -33.78% | -13.16% |
| 30 | `COc1ccc2[nH]cc(C(=O)CNc3nccs3)c2c1.I` | 8.261% and 3.978% | -1.838% |
| 31 | `CC(=O)N1CC(=O)N(c2ccccc2)CC12CCN(CC1CC1)C2.O=C(O)C(F)(F)F` (stereo not shown) | -26.39% | -26.6% |
| 32 | `O=C(NC[C@H]1OC[C@@H](NCc2ccccn2)[C@@H]1O)c1ccncc1` | 31.84% and 2.34% | 4.489% |
| 33 | `COCC1CN(C(=O)Cc2cccc(F)c2)Cc2ccnn2C1.O=C(O)C(F)(F)F` (stereo not shown) | 20.96% | -4.353% |
| 34 | `CC(C)CC(C)NCCCN1CCCN(C)CC1` (stereo not shown) | -56.84% | -25.89% |
| 35 | `NC(=O)c1nc(CC(=O)Nc2cccc(C(F)(F)F)c2)no1` | -4.143% and -1.042% | 6.584% |
| 36 | `Cc1nc(N(C)C2CCCCC2)ncc1C(C)NC(=O)c1cscn1` (stereo not shown) | -6.228% and -3.677% | -8.366% and -4.247% |
| 37 | `CN(C(=O)Cn1nnnc1C(C)(C)C)c1ccccc1` | 5.804% | -1.922% |
| 38 | `COc1cccc(CN2CCC3(CCN(C(=O)C4CC=CC4)CC3)C2)c1.O=C(O)C(F)(F)F` | -18.84% and -3.937% | -10.89% |
| 39 | `COc1ccc(CC(=O)N2CCC(c3n[nH]c(C4CC4)n3)CC2)cc1` | 13.64% | 9.3% |
| 40 | `COc1ccc(C(C)NC(=O)NCCc2ccc(C)nc2)c(OC)c1` (stereo not shown) | -0.07975% | -9.819% |
| 41 | `CC(C)(C)OC(=O)N1CCC[C@H](NCC2CCOCC2)C1` | -17.14% | -15.13% |
| 42 | `CSC(C)C(=O)NCc1ccnc(N2CCN(C)CC2)c1` (stereo not shown) | -8.743% | -11.23% |
| 43 | `CSc1nsc(NC(=O)N(C)Cc2ccc3c(c2)OCO3)n1` | 26.86% | 22.03% |
| 44 | `COCC(=O)N(C)Cc1nc(N(C)C)ncc1-c1ccncc1` | 10.52% | -3.82% and -0.7223% |
| 45 | `COCCN(CC1CC1)c1nc(CCN)nc2ccccc12` | 12.19% | 6.573% |
| 46 | `COCCN1CC(O)CN(C(=O)c2ccc(SC)cc2)CC1=O` (stereo not shown) | 6.382% | -9.023% |
| 47 | `OCc1cc2ccccc2nc1NCC1(O)CCC1` | 18.61% | 1.271% |
| 48 | `CCN(C(=O)NCc1cccnc1N(C)C)C(C)c1cccnc1` (stereo not shown) | -13.93% | 8.937% |
| 49 | `Cc1csc(N2CCN(C(=O)Cc3ccsc3)CC2)n1` | -7.418% | 15.1% |
| 50 | `CN(C)C[C@@H]1CN(C(=O)c2cc(F)ccc2F)C[C@@H]1CO` | 2.615% | -6.787% |
| 51 | `CC(C)c1nc2n(n1)CC(NCc1ncc(-c3ccccc3)o1)CC2` (stereo not shown) | -9.202% | -6.801% |
| 52 | `Cc1cnc(C)c(N2CCN(CC3CCCO3)CC2)n1` (stereo not shown) | 0.4191% | 3.492% |
| 53 | `Cc1noc2nc(C3CCN(Cc4cccnc4)CC3)cc(C(F)F)c12.Cl` | -13.2% | -5.254% |
| 54 | `[H][C@@]12CN(C(=O)c3cccn3C)C[C@]1([H])C(=O)N(CC(C)C)C2` | -21.43% | -29.6% |

Repeated from the top, 6 entries:

{"compound": "O=C(C1CCOCC1)N1CCC2(CC1)CN(c1ccsc1)C(=O)CO2", "Mtb glucose medium": 6.972, "Mtb cholesterol medium": "-14.48 and 16.87"}
{"compound": "CCc1nc(CNc2ccc(C(=O)N3CCSCC3)cc2C)no1", "Mtb glucose medium": 32.27, "Mtb cholesterol medium": -5.225}
{"compound": "COc1cc2nc(NCc3ccc(C)nc3)nc(N)c2cc1OC", "Mtb glucose medium": 49.09, "Mtb cholesterol medium": 15.58}
{"compound": "CCN(CC(C)C#N)C(=O)CNc1ccc(F)c(C)c1", "stereo": "stereo not shown", "Mtb glucose medium": -6.444, "Mtb cholesterol medium": "-13.32 and -10.1"}
{"compound": "c1ncn(CC2CCCCN2Cc2cn3ccsc3n2)n1", "stereo": "stereo not shown", "Mtb glucose medium": 20.45, "Mtb cholesterol medium": -11.21}
{"compound": "CN(C(=O)CSc1ccccn1)C1CCCN(CCc2ccccc2)C1", "stereo": "stereo not shown", "Mtb glucose medium": "14.6 and 16.74", "Mtb cholesterol medium": 3.031}